Measured values as given in PMC3184067.
No constants are given. Whether binding was seen depends on the method and setting. Binding seen in cells or lysates may run through a third protein. Some results given as binding are weak or reduced against the parent protein; the word gives no strength.

T1: Myristoylated Alanine-Rich C Kinase Substrate (MARCKS) protein (human (endogenous in NHBE)) (UniProt P29966)
T1 sequence: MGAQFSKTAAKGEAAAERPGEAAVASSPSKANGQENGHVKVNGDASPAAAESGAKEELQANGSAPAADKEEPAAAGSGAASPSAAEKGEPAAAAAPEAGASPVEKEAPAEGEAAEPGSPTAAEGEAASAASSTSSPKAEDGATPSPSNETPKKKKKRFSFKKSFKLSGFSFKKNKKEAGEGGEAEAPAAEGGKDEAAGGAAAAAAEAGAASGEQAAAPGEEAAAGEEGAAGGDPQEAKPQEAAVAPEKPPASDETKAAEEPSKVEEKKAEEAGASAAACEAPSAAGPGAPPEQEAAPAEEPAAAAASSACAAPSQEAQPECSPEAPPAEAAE


Target: T1, Myristoylated Alanine-Rich C Kinase Substrate (MARCKS) protein (human (endogenous in NHBE))
Experiment: co-IP; MARCKS immunoprecipitated from NHBE whole cell lysates (antibody overnight at 4°C, Protein G Dynal beads 3 hr, washed three times with cold PBS); blots probed with anti-CSP, anti-HSP70 and anti-hCLCA1; whole molecule rabbit IgG as negative control

Row | binding | Binder
1 | binds | calcium activated chloride channel hCLCA1 (the human ortholog of murine Gob-5) (protein, UniProt A8K7I4 22-914) NSLIQLNNNGYEGIVVAIDPNVPEDETLIQQIKDMVTQASLYLLEATGKRFYFKNVAILIPETWKTKADYVRPKLETYKNADVLVAESTPPGNDEPYTEQMGNCGEKGERIHLTPDFIAGKKLAEYGPQGRAFVHEWAHLRWGVFDEYNNDEKFYLSNGRIQAVRCSAGITGTNVVKKCQGGSCYTKRCTFNKVTGLYEKGCEFVLQSRQTEKASIMFAQHVDSIVEFCTEQNHNKEAPNKQNQKCNLRSTWEVIRDSEDFKKTTPMTTQPPNPTFSLLQIGQRIVCLVLDKSGSMATGNRLNRLNQAGQLFLLQTVELGSWVGMVTFDSAAHVQNELIQINSGSDRDTLAKRLPAAASGGTSICSGLRSAFTVIRKKYPTDGSEIVLLTDGEDNTISGCFNEVKQSGAIIHTVALGPSAAQELEELSKMTGGLQTYASDQVQNNGLIDAFGALSSGNGAVSQRSIQLESKGLTLQNSQWMNGTVIVDSTVGKDTLFLITWTMQPPQILLWDPSGQKQGGFVVDKNTKMAYLQIPGIAKVGTWKYSLQASSQTLTLTVTSRASNATLPPITVTSKTNKDTSKFPSPLVVYANIRQGASPILRASVTALIESVNGKTVTLELLDNGAGADATKDDGVYSRYFTTYDTNGRYSVKVRALGGVNAARRRVIPQQSGALYIPGWIENDEIQWNPPRPEINKDDVQHKQVCFSRTSSGGSFVASDVPNAPIPDLFPPGQITDLKAEIHGGSLINLTWTAPGDDYDHGTAHKYIIRISTSILDLRDKFNESLQVNTTALIPKEANSEEVFLFKPENITFENGTDLFIAIQAVDKVDLKSEISNIARVSLFIPPQTPPETPSPDETSAPCPNIHINSTIPGIHILKIMWKWIGELQLSIA
2 | binds | Cysteine string protein (CSP) (protein, UniProt Q9H3Z4 1-198) MADQRQRSLSTSGESLYHVLGLDKNATSDDIKKSYRKLALKYHPDKNPDNPEAADKFKEINNAHAILTDATKRNIYDKYGSLGLYVAEQFGEENVNTYFVLSSWWAKALFVFCGLLTCCYCCCCLCCCFNCCCGKCKPKAPEGEETEFYVSPEDLEAQLQSDEREATDTPIVIQPASATETTQLTADSHPSYHTDGFN
